Test results published in paper PMC10913371.
No constants are given. Whether binding was seen depends on the method and setting.

Molecular target: Clostridioides difficile translation initiation factor 1 (Clostridioides difficile) (UniProt Q18CI2)
Experiment: 15N NMR relaxation (R1 and R2); rotational correlation time of ~6 ns and molecular weight of ~10 kDa; NMR solution conditions; both purified

B1: Clostridioides difficile translation initiation factor 1 (protein, UniProt Q18CI2 1-72)
chain: MASMAKKDVIELEGTVSEALPNAMFKVKLENGHEILCHISGKLRMNFIRILEGDKVNVELSPYDLTRGRITWRKK
- binding: no binding
